Results published in the supplement of paper PMC11438910.
The other results are listed elsewhere or left out. Only a few entries rise above the background.

What was measured:
Assay in all cases: fluorescence intensity of antibody binding to polysaccharide-coupled beads; higher = stronger binding
[1] = biological target: pneumococcal polysaccharide Pn47A
[2] = biological target: pneumococcal polysaccharide Pn47F
[3] = biological target: pneumococcal polysaccharide Pn48
[4] = biological target: pneumococcal polysaccharide Pn5
[5] = biological target: pneumococcal polysaccharide Pn6A
[6] = biological target: pneumococcal polysaccharide Pn6B
[7] = biological target: pneumococcal polysaccharide Pn6C
[8] = biological target: pneumococcal polysaccharide Pn6D
[9] = biological target: pneumococcal polysaccharide Pn7A
[10] = biological target: pneumococcal polysaccharide Pn7B
[11] = biological target: pneumococcal polysaccharide Pn7C
[12] = biological target: pneumococcal polysaccharide Pn7F
[13] = biological target: pneumococcal polysaccharide Pn8
[14] = biological target: pneumococcal polysaccharide Pn9A
[15] = biological target: pneumococcal polysaccharide Pn9L
[16] = biological target: pneumococcal polysaccharide Pn9N
[17] = biological target: pneumococcal polysaccharide Pn9V
[18] = antibody concentration 2337.65 ng/mL
[19] = antibody concentration 12500 ng/mL
[20] = antibody concentration 0.1 ng/mL
[21] = antibody concentration 0.534724 ng/mL
[22] = antibody concentration 2.8593 ng/mL
[23] = antibody concentration 15.2894 ng/mL
[24] = antibody concentration 81.7561 ng/mL
[25] = antibody concentration 437.17 ng/mL

B1: 3S41.2 (protein)
chain 1: EVQLVESGGGLVQPGGSLRLSCATSGFTFRNYWMYWFRQAPGKGLDWVSSISDSSSNTFYSDSVKGRFTISRDNAKNTLYLQMNSLRAEDTAVYYCARRPIAAATGVYWYFDLWGPGTPITVSS
chain 2: QAALTQPPSMSGSPGQSVTISCTGTSSDIGGYNRVSWYQQYPGKAPKLMIYEVSKRPSGVSDRFSGSKSGNTAALTISGLQAADEADYYCSSYAGSYTFVLFGGGTRLTVL
For B1, which fluorescence intensity [1, 18] is on record?
The fluorescence intensity was 21 MFI.

What about the fluorescence intensity [1, 19] of the same binder?
The fluorescence intensity was 41 MFI.

And the fluorescence intensity [2, 20]?
Its fluorescence intensity is 11 MFI.

And the fluorescence intensity [2, 21]?
The fluorescence intensity was 11.5 MFI.

And the fluorescence intensity [2, 22]?
The fluorescence intensity was 12 MFI.

What about the fluorescence intensity [2, 23] of the same binder?
Its fluorescence intensity is 14.2 MFI.

And the fluorescence intensity [2, 24]?
The fluorescence intensity was 13.5 MFI.

What about the fluorescence intensity [2, 25] of the same binder?
The fluorescence intensity was 14.5 MFI.

What about the fluorescence intensity [2, 18] of the same binder?
The fluorescence intensity was 28.5 MFI.

What about the fluorescence intensity [2, 19] of the same binder?
Its fluorescence intensity is 149 MFI.

And the fluorescence intensity [3, 20]?
The fluorescence intensity was 20.8 MFI.

What about the fluorescence intensity [3, 21] of the same binder?
The fluorescence intensity was 21 MFI.

And the fluorescence intensity [3, 22]?
Its fluorescence intensity is 21.5 MFI.

And the fluorescence intensity [3, 23]?
Its fluorescence intensity is 20.5 MFI.

And the fluorescence intensity [3, 24]?
The fluorescence intensity was 21.5 MFI.

What about the fluorescence intensity [3, 25] of the same binder?
The fluorescence intensity was 26.2 MFI.

What about the fluorescence intensity [3, 18] of the same binder?
Its fluorescence intensity is 37.5 MFI.

And the fluorescence intensity [3, 19]?
The fluorescence intensity was 70.8 MFI.

And the fluorescence intensity [4, 20]?
The fluorescence intensity was 8.5 MFI.

And the fluorescence intensity [4, 21]?
Its fluorescence intensity is 9.25 MFI.

What about the fluorescence intensity [4, 22] of the same binder?
Its fluorescence intensity is 9.5 MFI.

What about the fluorescence intensity [4, 23] of the same binder?
Its fluorescence intensity is 8 MFI.

And the fluorescence intensity [4, 24]?
Its fluorescence intensity is 10 MFI.

What about the fluorescence intensity [4, 25] of the same binder?
The fluorescence intensity was 11.5 MFI.

And the fluorescence intensity [4, 18]?
The fluorescence intensity was 30.2 MFI.

What about the fluorescence intensity [4, 19] of the same binder?
The fluorescence intensity was 193 MFI.

And the fluorescence intensity [5, 20]?
The fluorescence intensity was 22 MFI.

And the fluorescence intensity [5, 21]?
The fluorescence intensity was 22 MFI.

What about the fluorescence intensity [5, 22] of the same binder?
Its fluorescence intensity is 21.2 MFI.

What about the fluorescence intensity [5, 23] of the same binder?
The fluorescence intensity was 19.8 MFI.

And the fluorescence intensity [5, 24]?
Its fluorescence intensity is 22.8 MFI.

And the fluorescence intensity [5, 25]?
Its fluorescence intensity is 24 MFI.

And the fluorescence intensity [5, 18]?
The fluorescence intensity was 33 MFI.

And the fluorescence intensity [5, 19]?
The fluorescence intensity was 45.8 MFI.

And the fluorescence intensity [6, 20]?
The fluorescence intensity was 20.2 MFI.

What about the fluorescence intensity [6, 21] of the same binder?
Its fluorescence intensity is 21 MFI.

What about the fluorescence intensity [6, 22] of the same binder?
The fluorescence intensity was 20 MFI.

What about the fluorescence intensity [6, 23] of the same binder?
Its fluorescence intensity is 20 MFI.

And the fluorescence intensity [6, 24]?
The fluorescence intensity was 19.2 MFI.

And the fluorescence intensity [6, 25]?
The fluorescence intensity was 22 MFI.

And the fluorescence intensity [6, 18]?
The fluorescence intensity was 27.8 MFI.

And the fluorescence intensity [6, 19]?
The fluorescence intensity was 41.5 MFI.

What about the fluorescence intensity [7, 20] of the same binder?
The fluorescence intensity was 17.8 MFI.

What about the fluorescence intensity [7, 21] of the same binder?
Its fluorescence intensity is 16.8 MFI.

What about the fluorescence intensity [7, 22] of the same binder?
The fluorescence intensity was 24 MFI.

And the fluorescence intensity [7, 23]?
The fluorescence intensity was 28 MFI.

And the fluorescence intensity [7, 24]?
Its fluorescence intensity is 43.8 MFI.

What about the fluorescence intensity [7, 25] of the same binder?
Its fluorescence intensity is 57 MFI.

And the fluorescence intensity [7, 18]?
The fluorescence intensity was 70.5 MFI.

And the fluorescence intensity [7, 19]?
Its fluorescence intensity is 97.2 MFI.

What about the fluorescence intensity [8, 20] of the same binder?
Its fluorescence intensity is 16.5 MFI.

And the fluorescence intensity [8, 21]?
The fluorescence intensity was 18.5 MFI.

What about the fluorescence intensity [8, 22] of the same binder?
Its fluorescence intensity is 19.2 MFI.

What about the fluorescence intensity [8, 23] of the same binder?
Its fluorescence intensity is 16.8 MFI.

What about the fluorescence intensity [8, 24] of the same binder?
Its fluorescence intensity is 18 MFI.

And the fluorescence intensity [8, 25]?
The fluorescence intensity was 17.8 MFI.

And the fluorescence intensity [8, 18]?
Its fluorescence intensity is 19.5 MFI.

What about the fluorescence intensity [8, 19] of the same binder?
Its fluorescence intensity is 30.2 MFI.

And the fluorescence intensity [9, 20]?
Its fluorescence intensity is 20.5 MFI.

And the fluorescence intensity [9, 21]?
The fluorescence intensity was 20 MFI.

What about the fluorescence intensity [9, 22] of the same binder?
The fluorescence intensity was 21 MFI.

What about the fluorescence intensity [9, 23] of the same binder?
The fluorescence intensity was 22 MFI.

And the fluorescence intensity [9, 24]?
Its fluorescence intensity is 22.5 MFI.

What about the fluorescence intensity [9, 25] of the same binder?
Its fluorescence intensity is 27.8 MFI.

What about the fluorescence intensity [9, 18] of the same binder?
The fluorescence intensity was 96.2 MFI.

What about the fluorescence intensity [9, 19] of the same binder?
Its fluorescence intensity is 626 MFI.

What about the fluorescence intensity [10, 20] of the same binder?
Its fluorescence intensity is 17 MFI.

And the fluorescence intensity [10, 21]?
Its fluorescence intensity is 17 MFI.

What about the fluorescence intensity [10, 22] of the same binder?
The fluorescence intensity was 16 MFI.

And the fluorescence intensity [10, 23]?
The fluorescence intensity was 16.5 MFI.

And the fluorescence intensity [10, 24]?
The fluorescence intensity was 17.5 MFI.

What about the fluorescence intensity [10, 25] of the same binder?
The fluorescence intensity was 19 MFI.

What about the fluorescence intensity [10, 18] of the same binder?
Its fluorescence intensity is 28.5 MFI.

What about the fluorescence intensity [10, 19] of the same binder?
The fluorescence intensity was 94 MFI.

And the fluorescence intensity [11, 20]?
Its fluorescence intensity is 17 MFI.

What about the fluorescence intensity [11, 21] of the same binder?
The fluorescence intensity was 17 MFI.

What about the fluorescence intensity [11, 22] of the same binder?
The fluorescence intensity was 18 MFI.

And the fluorescence intensity [11, 23]?
The fluorescence intensity was 15.5 MFI.

And the fluorescence intensity [11, 24]?
The fluorescence intensity was 17 MFI.

And the fluorescence intensity [11, 25]?
Its fluorescence intensity is 16.8 MFI.

What about the fluorescence intensity [11, 18] of the same binder?
The fluorescence intensity was 25 MFI.

And the fluorescence intensity [11, 19]?
The fluorescence intensity was 80 MFI.

What about the fluorescence intensity [12, 20] of the same binder?
Its fluorescence intensity is 15.5 MFI.

And the fluorescence intensity [12, 21]?
The fluorescence intensity was 15 MFI.

What about the fluorescence intensity [12, 22] of the same binder?
Its fluorescence intensity is 15 MFI.

What about the fluorescence intensity [12, 23] of the same binder?
The fluorescence intensity was 15.5 MFI.

And the fluorescence intensity [12, 24]?
The fluorescence intensity was 17 MFI.

What about the fluorescence intensity [12, 25] of the same binder?
The fluorescence intensity was 20 MFI.

What about the fluorescence intensity [12, 18] of the same binder?
Its fluorescence intensity is 68.5 MFI.

What about the fluorescence intensity [12, 19] of the same binder?
Its fluorescence intensity is 536 MFI.

What about the fluorescence intensity [13, 20] of the same binder?
The fluorescence intensity was 20.5 MFI.

What about the fluorescence intensity [13, 21] of the same binder?
The fluorescence intensity was 22 MFI.

And the fluorescence intensity [13, 22]?
Its fluorescence intensity is 22 MFI.

What about the fluorescence intensity [13, 23] of the same binder?
The fluorescence intensity was 22.5 MFI.

And the fluorescence intensity [13, 24]?
Its fluorescence intensity is 21.5 MFI.

And the fluorescence intensity [13, 25]?
Its fluorescence intensity is 25 MFI.

And the fluorescence intensity [13, 18]?
The fluorescence intensity was 35.5 MFI.

And the fluorescence intensity [13, 19]?
Its fluorescence intensity is 57.5 MFI.

What about the fluorescence intensity [14, 20] of the same binder?
Its fluorescence intensity is 19.5 MFI.

What about the fluorescence intensity [14, 21] of the same binder?
The fluorescence intensity was 20 MFI.

And the fluorescence intensity [14, 22]?
The fluorescence intensity was 20 MFI.

And the fluorescence intensity [14, 23]?
The fluorescence intensity was 20.5 MFI.

What about the fluorescence intensity [14, 24] of the same binder?
The fluorescence intensity was 21.5 MFI.

What about the fluorescence intensity [14, 25] of the same binder?
The fluorescence intensity was 20 MFI.

And the fluorescence intensity [14, 18]?
Its fluorescence intensity is 35 MFI.

And the fluorescence intensity [14, 19]?
The fluorescence intensity was 123 MFI.

What about the fluorescence intensity [15, 20] of the same binder?
The fluorescence intensity was 18 MFI.

And the fluorescence intensity [15, 21]?
The fluorescence intensity was 17 MFI.

What about the fluorescence intensity [15, 22] of the same binder?
The fluorescence intensity was 17 MFI.

What about the fluorescence intensity [15, 23] of the same binder?
Its fluorescence intensity is 18 MFI.

And the fluorescence intensity [15, 24]?
The fluorescence intensity was 19 MFI.

And the fluorescence intensity [15, 25]?
The fluorescence intensity was 18 MFI.

And the fluorescence intensity [15, 18]?
Its fluorescence intensity is 25 MFI.

What about the fluorescence intensity [15, 19] of the same binder?
Its fluorescence intensity is 51 MFI.

And the fluorescence intensity [16, 20]?
Its fluorescence intensity is 16.5 MFI.

And the fluorescence intensity [16, 21]?
The fluorescence intensity was 15.5 MFI.

What about the fluorescence intensity [16, 22] of the same binder?
Its fluorescence intensity is 17 MFI.

And the fluorescence intensity [16, 23]?
The fluorescence intensity was 16.5 MFI.

What about the fluorescence intensity [16, 24] of the same binder?
The fluorescence intensity was 16 MFI.

And the fluorescence intensity [16, 25]?
The fluorescence intensity was 17.5 MFI.

What about the fluorescence intensity [16, 18] of the same binder?
The fluorescence intensity was 27.5 MFI.

What about the fluorescence intensity [16, 19] of the same binder?
The fluorescence intensity was 67.5 MFI.

And the fluorescence intensity [17, 20]?
The fluorescence intensity was 15 MFI.

What about the fluorescence intensity [17, 21] of the same binder?
Its fluorescence intensity is 15.2 MFI.

What about the fluorescence intensity [17, 22] of the same binder?
Its fluorescence intensity is 14.5 MFI.

And the fluorescence intensity [17, 23]?
Its fluorescence intensity is 13.5 MFI.

What about the fluorescence intensity [17, 24] of the same binder?
The fluorescence intensity was 15 MFI.

And the fluorescence intensity [17, 25]?
Its fluorescence intensity is 16 MFI.

What about the fluorescence intensity [17, 18] of the same binder?
The fluorescence intensity was 20.5 MFI.

And the fluorescence intensity [17, 19]?
The fluorescence intensity was 26.5 MFI.
